In series [1] the test system is GST-CsHDA2 (Camellia sinensis). Kind of series: EMSA. The note with it: LightShift Chemiluminescent EMSA Kit (ThermoFisher) per manufacturer; pH and temperature not stated; recombinant protein; protein details: N-terminal GST; label: 3'-biotin. (In general: A gel shift assay detects complexes by their altered migration in electrophoresis.)
Series [2] relates to GST-CsMYC2 (Camellia sinensis). As to the kind of experiment: EMSA. To be noted: LightShift Chemiluminescent EMSA Kit (ThermoFisher) per manufacturer, pH and temperature not stated, recombinant protein, protein details: N-terminal GST, label: 3'-biotin.

For at least one entry, the source does not settle the construct or the ends of the probe. For part of these data: No signal at the amounts used counts as a negative.

The text below walks through data of article PMC9613726.

Turning to “CTACTTTCATGTGATTCTATGTTCAACTCTCCCAAGCAACATACTTACGAAAATTTTCTTGCCATTTGACAAAATG (double strand) [CsNES promoter E-box probe]”, the binding result is given as “no binding” in series [1]; “binds” in series [2]; “binds” in series [2] (increasing GST-CsHDA2 added, CsMYC2 binding unchanged).
